Measured values: the supplement of paper PMC12823440, “Inhibitors supercharge kinase turnover through native proteolytic circuits” (Nature, 2025)
Structures can show the parent of a compound that is named as a salt. Some of the results follow. The calls rarely recur for the same compound in another form.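 Kinases, fused to nanoluciferase, were expressed in K562 cells; luminescence was measured every 4 h from 2 to 18 h as percent of control (DMSO = 100%, positive control = 0%). A time point is decreased if signal falls significantly (2 sigma). Hits were called by the authors by a rule that is not shown; the count of time points alone does not decide it.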

Amino acid sequences for entries named in this document (tags omitted). A change or cut given only in a name is not applied to a line headed by its entry.
UniProt P07948: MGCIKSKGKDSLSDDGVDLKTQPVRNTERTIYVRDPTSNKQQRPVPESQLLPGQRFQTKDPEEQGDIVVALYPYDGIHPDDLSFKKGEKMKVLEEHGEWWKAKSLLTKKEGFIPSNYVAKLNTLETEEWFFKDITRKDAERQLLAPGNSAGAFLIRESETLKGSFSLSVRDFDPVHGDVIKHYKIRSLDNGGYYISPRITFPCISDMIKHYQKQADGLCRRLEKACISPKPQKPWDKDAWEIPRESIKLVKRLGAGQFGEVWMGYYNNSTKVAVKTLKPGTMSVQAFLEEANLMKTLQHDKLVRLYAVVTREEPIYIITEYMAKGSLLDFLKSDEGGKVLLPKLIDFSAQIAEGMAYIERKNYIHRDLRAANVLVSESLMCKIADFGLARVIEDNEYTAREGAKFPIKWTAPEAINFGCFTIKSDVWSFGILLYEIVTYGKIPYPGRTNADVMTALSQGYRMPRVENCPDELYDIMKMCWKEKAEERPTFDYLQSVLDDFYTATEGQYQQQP
UniProt Q12851: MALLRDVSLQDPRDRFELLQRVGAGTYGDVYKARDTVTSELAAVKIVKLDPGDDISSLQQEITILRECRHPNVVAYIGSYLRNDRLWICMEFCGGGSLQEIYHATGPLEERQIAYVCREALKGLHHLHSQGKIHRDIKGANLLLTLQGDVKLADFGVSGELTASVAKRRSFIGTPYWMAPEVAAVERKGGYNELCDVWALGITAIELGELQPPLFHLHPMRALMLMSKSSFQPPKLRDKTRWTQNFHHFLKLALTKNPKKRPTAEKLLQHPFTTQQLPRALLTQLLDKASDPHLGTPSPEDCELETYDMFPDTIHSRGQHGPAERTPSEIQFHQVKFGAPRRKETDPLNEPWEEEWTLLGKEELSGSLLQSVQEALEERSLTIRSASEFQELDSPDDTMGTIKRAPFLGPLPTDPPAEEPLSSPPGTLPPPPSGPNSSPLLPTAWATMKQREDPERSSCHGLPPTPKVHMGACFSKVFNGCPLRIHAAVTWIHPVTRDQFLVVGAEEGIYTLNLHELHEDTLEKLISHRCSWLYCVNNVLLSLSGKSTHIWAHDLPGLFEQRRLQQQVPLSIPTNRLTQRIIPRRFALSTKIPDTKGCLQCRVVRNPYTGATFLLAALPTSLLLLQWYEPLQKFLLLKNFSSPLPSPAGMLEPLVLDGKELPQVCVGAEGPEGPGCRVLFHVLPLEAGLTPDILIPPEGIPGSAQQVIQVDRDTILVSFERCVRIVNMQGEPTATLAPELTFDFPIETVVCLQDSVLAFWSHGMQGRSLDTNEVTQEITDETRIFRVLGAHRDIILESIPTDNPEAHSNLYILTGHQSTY
UniProt P28482, whole entry: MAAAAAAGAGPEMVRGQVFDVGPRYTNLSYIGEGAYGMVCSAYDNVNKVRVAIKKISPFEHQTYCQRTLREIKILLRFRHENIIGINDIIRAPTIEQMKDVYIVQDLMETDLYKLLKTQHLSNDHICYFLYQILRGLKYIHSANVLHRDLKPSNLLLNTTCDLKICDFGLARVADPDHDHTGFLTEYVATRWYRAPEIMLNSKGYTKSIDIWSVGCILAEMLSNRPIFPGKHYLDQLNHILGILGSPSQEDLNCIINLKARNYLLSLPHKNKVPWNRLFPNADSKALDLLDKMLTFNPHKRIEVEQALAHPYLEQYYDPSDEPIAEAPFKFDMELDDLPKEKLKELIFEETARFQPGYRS
UniProt Q16288, whole entry, looked up: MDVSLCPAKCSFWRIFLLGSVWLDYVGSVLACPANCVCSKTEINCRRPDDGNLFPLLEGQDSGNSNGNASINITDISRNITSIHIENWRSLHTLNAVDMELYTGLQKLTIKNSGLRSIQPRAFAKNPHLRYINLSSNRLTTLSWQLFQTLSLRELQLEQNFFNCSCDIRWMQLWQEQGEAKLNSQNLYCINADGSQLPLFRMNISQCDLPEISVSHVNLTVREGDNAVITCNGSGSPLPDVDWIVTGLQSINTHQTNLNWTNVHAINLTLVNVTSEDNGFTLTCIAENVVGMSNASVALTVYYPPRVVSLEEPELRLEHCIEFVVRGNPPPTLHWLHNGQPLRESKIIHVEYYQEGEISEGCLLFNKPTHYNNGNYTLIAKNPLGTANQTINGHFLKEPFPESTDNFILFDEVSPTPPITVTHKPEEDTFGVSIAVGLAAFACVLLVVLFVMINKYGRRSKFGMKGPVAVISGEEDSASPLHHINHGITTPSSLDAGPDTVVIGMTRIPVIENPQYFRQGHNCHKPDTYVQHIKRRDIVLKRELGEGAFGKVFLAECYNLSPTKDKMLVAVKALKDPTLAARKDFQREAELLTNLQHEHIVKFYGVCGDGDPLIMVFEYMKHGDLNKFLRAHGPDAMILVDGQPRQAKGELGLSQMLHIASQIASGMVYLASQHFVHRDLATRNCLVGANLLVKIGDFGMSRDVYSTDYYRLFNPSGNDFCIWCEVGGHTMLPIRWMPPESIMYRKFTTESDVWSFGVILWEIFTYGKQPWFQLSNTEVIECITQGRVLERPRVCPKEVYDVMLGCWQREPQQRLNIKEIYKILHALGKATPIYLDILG
UniProt O96013: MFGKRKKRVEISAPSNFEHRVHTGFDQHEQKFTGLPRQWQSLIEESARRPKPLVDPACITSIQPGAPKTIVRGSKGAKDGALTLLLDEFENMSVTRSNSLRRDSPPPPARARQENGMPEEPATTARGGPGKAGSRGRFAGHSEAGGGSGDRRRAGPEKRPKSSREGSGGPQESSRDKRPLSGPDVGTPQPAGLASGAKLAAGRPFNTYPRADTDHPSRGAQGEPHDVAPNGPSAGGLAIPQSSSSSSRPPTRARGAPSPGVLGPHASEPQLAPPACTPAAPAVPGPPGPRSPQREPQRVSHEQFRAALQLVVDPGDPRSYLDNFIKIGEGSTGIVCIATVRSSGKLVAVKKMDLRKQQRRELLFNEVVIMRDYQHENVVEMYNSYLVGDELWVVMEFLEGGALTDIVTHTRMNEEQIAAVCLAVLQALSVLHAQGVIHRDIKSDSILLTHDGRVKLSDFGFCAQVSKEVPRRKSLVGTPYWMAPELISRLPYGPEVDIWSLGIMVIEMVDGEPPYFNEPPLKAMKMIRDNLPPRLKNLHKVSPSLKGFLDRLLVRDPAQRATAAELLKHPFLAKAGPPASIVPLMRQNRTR
UniProt Q96KB5: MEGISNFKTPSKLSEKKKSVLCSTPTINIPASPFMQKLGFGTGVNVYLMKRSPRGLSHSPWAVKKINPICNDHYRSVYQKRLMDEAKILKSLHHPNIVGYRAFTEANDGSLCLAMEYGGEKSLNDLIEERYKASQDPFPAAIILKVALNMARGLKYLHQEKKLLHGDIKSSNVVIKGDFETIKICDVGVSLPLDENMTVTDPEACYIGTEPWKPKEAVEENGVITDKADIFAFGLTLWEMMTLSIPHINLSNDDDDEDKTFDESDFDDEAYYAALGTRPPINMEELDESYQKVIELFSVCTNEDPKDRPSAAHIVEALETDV
UniProt Q15118, whole entry, looked up: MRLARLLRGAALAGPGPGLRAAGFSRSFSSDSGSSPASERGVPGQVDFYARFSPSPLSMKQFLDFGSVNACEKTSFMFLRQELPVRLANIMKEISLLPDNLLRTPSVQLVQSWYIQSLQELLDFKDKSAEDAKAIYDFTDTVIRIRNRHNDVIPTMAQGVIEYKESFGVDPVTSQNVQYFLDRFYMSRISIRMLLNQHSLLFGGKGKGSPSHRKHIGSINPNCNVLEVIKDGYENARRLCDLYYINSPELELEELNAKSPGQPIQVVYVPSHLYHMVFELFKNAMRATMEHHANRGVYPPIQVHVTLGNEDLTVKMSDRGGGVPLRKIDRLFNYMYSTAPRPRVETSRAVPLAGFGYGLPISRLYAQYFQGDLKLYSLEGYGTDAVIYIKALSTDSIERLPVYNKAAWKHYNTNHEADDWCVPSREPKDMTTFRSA
UniProt P42356, whole entry, looked up: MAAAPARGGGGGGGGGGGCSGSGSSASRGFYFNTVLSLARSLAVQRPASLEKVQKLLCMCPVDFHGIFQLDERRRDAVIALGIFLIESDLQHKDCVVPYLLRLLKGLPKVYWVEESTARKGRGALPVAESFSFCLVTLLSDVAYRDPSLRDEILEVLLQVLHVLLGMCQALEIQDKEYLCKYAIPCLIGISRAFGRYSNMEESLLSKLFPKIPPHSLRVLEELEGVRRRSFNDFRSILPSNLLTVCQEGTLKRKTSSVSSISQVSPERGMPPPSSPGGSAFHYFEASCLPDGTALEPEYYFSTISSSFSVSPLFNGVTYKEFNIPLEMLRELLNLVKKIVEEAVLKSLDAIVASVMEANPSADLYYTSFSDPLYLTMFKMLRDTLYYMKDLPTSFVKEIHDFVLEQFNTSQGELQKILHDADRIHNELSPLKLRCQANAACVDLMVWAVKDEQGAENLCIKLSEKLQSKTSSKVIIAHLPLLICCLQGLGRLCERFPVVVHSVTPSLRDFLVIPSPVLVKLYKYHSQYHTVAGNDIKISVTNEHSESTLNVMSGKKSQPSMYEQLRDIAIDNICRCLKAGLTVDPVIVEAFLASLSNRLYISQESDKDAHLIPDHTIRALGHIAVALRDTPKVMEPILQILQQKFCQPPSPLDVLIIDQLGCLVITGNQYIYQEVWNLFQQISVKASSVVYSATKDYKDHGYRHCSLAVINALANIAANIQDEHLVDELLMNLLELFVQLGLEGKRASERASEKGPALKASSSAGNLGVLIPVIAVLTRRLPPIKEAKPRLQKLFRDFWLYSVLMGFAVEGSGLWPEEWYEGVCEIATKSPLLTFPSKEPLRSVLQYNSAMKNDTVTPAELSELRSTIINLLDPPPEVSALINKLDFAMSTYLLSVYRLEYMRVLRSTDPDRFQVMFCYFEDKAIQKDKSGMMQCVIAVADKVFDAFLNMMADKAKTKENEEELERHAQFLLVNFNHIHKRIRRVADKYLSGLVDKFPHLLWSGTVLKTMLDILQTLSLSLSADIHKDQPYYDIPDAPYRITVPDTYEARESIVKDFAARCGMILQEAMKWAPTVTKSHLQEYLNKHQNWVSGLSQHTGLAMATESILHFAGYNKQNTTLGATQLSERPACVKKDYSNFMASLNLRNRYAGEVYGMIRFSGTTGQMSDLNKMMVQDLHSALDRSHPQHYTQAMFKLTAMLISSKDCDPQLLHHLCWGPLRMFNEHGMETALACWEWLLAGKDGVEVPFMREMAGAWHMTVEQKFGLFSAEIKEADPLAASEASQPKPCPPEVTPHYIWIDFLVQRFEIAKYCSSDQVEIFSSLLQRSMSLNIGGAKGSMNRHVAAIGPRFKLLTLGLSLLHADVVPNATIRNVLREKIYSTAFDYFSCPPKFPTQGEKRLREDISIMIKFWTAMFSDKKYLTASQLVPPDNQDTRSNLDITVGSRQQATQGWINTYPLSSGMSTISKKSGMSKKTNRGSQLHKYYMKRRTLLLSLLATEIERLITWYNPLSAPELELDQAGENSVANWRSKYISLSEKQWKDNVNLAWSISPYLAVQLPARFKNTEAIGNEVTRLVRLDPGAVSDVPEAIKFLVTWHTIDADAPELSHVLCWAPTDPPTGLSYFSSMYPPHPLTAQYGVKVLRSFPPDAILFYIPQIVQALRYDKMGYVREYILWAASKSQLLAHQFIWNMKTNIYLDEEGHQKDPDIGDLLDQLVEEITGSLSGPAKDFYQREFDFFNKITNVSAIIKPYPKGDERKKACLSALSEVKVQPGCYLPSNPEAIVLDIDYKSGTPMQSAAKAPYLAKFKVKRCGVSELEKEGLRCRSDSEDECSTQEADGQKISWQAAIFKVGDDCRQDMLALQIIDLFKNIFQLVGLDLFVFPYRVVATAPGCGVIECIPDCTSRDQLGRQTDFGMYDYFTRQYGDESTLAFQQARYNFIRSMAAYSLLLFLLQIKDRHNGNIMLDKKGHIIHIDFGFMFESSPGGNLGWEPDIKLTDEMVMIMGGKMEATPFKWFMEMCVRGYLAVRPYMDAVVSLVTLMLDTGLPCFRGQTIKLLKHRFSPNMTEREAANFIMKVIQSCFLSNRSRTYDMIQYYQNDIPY
UniProt P53350, whole entry: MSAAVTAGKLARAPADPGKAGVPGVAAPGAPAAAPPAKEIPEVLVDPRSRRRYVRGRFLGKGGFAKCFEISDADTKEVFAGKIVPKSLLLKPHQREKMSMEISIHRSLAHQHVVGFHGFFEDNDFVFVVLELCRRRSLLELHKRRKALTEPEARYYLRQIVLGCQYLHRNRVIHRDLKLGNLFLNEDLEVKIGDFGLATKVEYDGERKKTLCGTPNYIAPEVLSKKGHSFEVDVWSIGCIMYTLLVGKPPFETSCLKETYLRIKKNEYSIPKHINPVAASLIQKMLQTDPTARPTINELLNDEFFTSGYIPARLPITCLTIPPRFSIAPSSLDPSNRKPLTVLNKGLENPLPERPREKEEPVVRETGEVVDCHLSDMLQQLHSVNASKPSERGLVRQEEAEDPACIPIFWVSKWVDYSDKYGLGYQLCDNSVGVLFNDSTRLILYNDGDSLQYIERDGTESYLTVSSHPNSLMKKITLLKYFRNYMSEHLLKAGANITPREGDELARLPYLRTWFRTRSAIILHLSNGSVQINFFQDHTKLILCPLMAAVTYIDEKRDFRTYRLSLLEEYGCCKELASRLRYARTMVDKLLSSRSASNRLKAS

Key:
Assay in all cases: number of time points (of 5) at which kinase-Nluc abundance scored as decreased, DMSO-normalised (count); higher = more persistent destabilization
Conditions in all cases: K562; 2-18 h
LMTK2 = LMTK2 (UniProt Q8IWU2)
LYN = LYN (UniProt P07948)
MAP2K1 = MAP2K1 (UniProt Q02750)
MAP2K2 = MAP2K2 (UniProt P36507)
MAP4K2 = MAP4K2 (UniProt Q12851)
MAPK1 = MAPK1 (UniProt P28482)
MAPK4 = MAPK4 (UniProt P31152)
MAPKAPK2 = MAPKAPK2 (UniProt P49137)
MKNK1 = MKNK1 (UniProt Q9BUB5)
NTRK2 = NTRK2 (UniProt Q16620)
NTRK3 = NTRK3 (UniProt Q16288)
PAK4 = PAK4 (UniProt O96013)
PBK = PBK (UniProt Q96KB5)
PDGFRB = PDGFRB (UniProt P09619)
PDK1 = PDK1 (UniProt Q15118)
PDPK1 = PDPK1 (UniProt O15530)
PIK4CA = PIK4CA (UniProt P42356)
PIK4CB = PIK4CB (UniProt Q9UBF8)
PLK1 = PLK1 (UniProt P53350)
PRKAA1 = PRKAA1 (UniProt Q13131)

Row | SMILES | number of time points (LMTK2) | number of time points (LYN) | number of time points (MAP2K1) | number of time points (MAP2K2) | number of time points (MAP4K2) | number of time points (MAPK1) | number of time points (MAPK4) | number of time points (MAPKAPK2) | number of time points (MKNK1) | number of time points (NTRK2) | number of time points (NTRK3) | number of time points (PAK4) | number of time points (PBK) | number of time points (PDGFRB) | number of time points (PDK1) | number of time points (PDPK1) | number of time points (PIK4CA) | number of time points (PIK4CB) | number of time points (PLK1) | number of time points (PRKAA1)
1 | O=C1NCCCc2c1oc1ccc(O)cc21 (10 µM) | 0 | 0 | 0 | 0 | 0 | 0 | 0 | 0 | 0 | 0 | 0 | 0 | 0 | 0 | 0 | 0 | 0 | 0 | 0 | 0
2 | C=CC(=O)Nc1cccc(Oc2nc(Nc3ccc(N4CCN(C)CC4)cc3)nc3ccoc23)c1 [Poseltinib] (10 µM) | 0 | 0 | 0 | 0 | 0 | 0 | 0 | 0 | 0 | 0 | 0 | 0 | 0 | 0 | 0 | 0 | 0 | 0 | 0 | 0
3 | Cn1cc(-c2ccc(F)c(C(F)(F)F)c2)nc1C1CCN(c2ncnc3[nH]ncc23)CC1 (10 µM) | 0 | 0 | 0 | 0 | 0 | 0 | 0 | 0 | 0 | 0 | 0 | 0 | 0 | 0 | 0 | 0 | 0 | 0 | 0 | 0
4 | N#C/C(=C\c1ccc2oc(=O)[nH]c2c1)C(=O)c1ccc(O)c(O)c1 (10 µM) | 0 | 0 | 0 | 0 | 0 | 0 | 0 | 0 | 0 | 0 | 0 | 0 | 0 | 0 | 0 | 0 | 0 | 0 | 0 | 0
5 | Nc1cc(C(F)F)c(-c2nc(N3C4CCC3COC4)nc(N3C4CCC3COC4)n2)cn1 (2.5 µM) | 0 | 0 | 0 | 0 | 0 | 0 | 0 | 0 | 0 | 0 | 0 | 0 | 0 | 0 | 0 | 0 | 0 | 0 | 0 | 0
6 | Cc1cc(Nc2nc(N[C@@H](C)c3ncc(F)cn3)ncc2Cl)[nH]n1 (10 µM) | 0 | 0 | 0 | 0 | 0 | 0 | 0 | 0 | 0 | 0 | 0 | 0 | 0 | 0 | 0 | 0 | 0 | 0 | 0 | 0
7 | CC(CCc1ccccn1)(CCc1ccccn1)C(=O)c1ccccc1 (10 µM) | 0 | 0 | 0 | 0 | 0 | 0 | 0 | 0 | 0 | 0 | 0 | 0 | 0 | 0 | 0 | 0 | 0 | 0 | 0 | 0
8 | C=CS(=O)(=O)c1ccc(Nc2nc(OCC3CCCCC3)c3[nH]cnc3n2)cc1 (2.5 µM) | 0 | 0 | 0 | 0 | 0 | 0 | 0 | 0 | 0 | 0 | 0 | 0 | 0 | 0 | 0 | 0 | 0 | 0 | 0 | 0
9 | O=C(O)c1cc(O)c2c(c1)[C@@H]([C@H]1c3cc(C(=O)O)cc(O)c3C(=O)c3c(O[C@@H]4O[C@H](CO)[C@@H](O)[C@H](O)[C@H]4O)cccc31)c1cccc(O[C@@H]3O[C@H](CO)[C@@H](O)[C@H](O)[C@H]3O)c1C2=O [Sennoside B] (2.5 µM) | 0 | 0 | 0 | 0 | 0 | 0 | 0 | 0 | 0 | 0 | 0 | 0 | 0 | 0 | 0 | 0 | 0 | 0 | 0 | 0
10 | Cc1ccc(-c2nn(C(C)(C)CNC(=O)c3ccncc3)c3ncnc(N)c23)cc1 (2.5 µM) | 0 | 0 | 0 | 0 | 0 | 0 | 0 | 0 | 0 | 0 | 0 | 0 | 0 | 0 | 0 | 0 | 0 | 0 | 0 | 0
11 | COc1ncc(Nc2ncc([C@@H](C)N3CCN(S(C)(=O)=O)CC3)cc2-c2nc(C)nc(N)n2)cc1F (10 µM) | 0 | 0 | 0 | 0 | 0 | 0 | 0 | 0 | 0 | 0 | 0 | 0 | 0 | 0 | 0 | 0 | 0 | 0 | 0 | 0
12 | CN(C)c1nc2c(Br)c(Br)c(Br)c(Br)c2n1CC(=O)O (10 µM) | 0 | 0 | 0 | 0 | 0 | 0 | 0 | 0 | 0 | 0 | 0 | 0 | 0 | 0 | 0 | 0 | 0 | 0 | 0 | 0
13 | NCCCCCCNS(=O)(=O)c1cccc2c(Cl)cccc12 [W-7 (hydrochloride)] (10 µM) | 0 | 0 | 0 | 0 | 0 | 0 | 0 | 0 | 0 | 0 | 0 | 0 | 0 | 0 | 0 | 0 | 0 | 0 | 0 | 0
14 | CN(C)Cc1cccc(N=C(c2ccccc2)c2c(O)[nH]c3cc(C(=O)N(C)C)ccc23)c1 (10 µM) | 0 | 0 | 0 | 0 | 0 | 0 | 0 | 0 | 0 | 0 | 0 | 0 | 0 | 0 | 0 | 0 | 0 | 0 | 0 | 0
15 | O=C(c1ccc(Nc2nccc(-c3cc4ccccc4s3)n2)cc1)N1CCC(N2CCCC2)CC1 (2.5 µM) | 0 | 0 | 0 | 0 | 0 | 0 | 0 | 0 | 0 | 0 | 0 | 0 | 0 | 0 | 0 | 0 | 0 | 0 | 0 | 0
16 | N#C/C(=C(/N)Sc1ccc(N)cc1)c1ccccc1C(F)(F)F (10 µM) | 0 | 0 | 0 | 0 | 0 | 0 | 0 | 0 | 0 | 0 | 0 | 0 | 0 | 0 | 0 | 0 | 0 | 0 | 0 | 0
17 | C[C@@H]1COCCN1c1cc(=O)n2c(n1)N(Cc1cncc(Cl)c1)[C@H](C(F)(F)F)CC2 (10 µM) | 2 | 0 | 0 | 0 | 0 | 0 | 0 | 0 | 0 | 0 | 0 | 0 | 0 | 0 | 0 | 0 | 0 | 2 | 0 | 0
18 | COc1ccc(-n2c(C)c([N+](=O)[O-])c3ccc(O)cc32)cc1 (10 µM) | 0 | 0 | 0 | 0 | 0 | 0 | 0 | 0 | 0 | 0 | 0 | 0 | 0 | 0 | 0 | 0 | 0 | 0 | 0 | 4
19 | CC(C)(C)C(=O)N1N=CC[C@H]1c1ccccc1 (10 µM) | 0 | 0 | 0 | 0 | 0 | 0 | 0 | 0 | 0 | 0 | 0 | 0 | 0 | 0 | 0 | 0 | 0 | 0 | 0 | 0
20 | O=C(O)c1ccc(N2N=C(Cc3ccccc3)C(=Cc3ccc(-c4ccccc4F)o3)C2=O)cc1 (10 µM) | 0 | 0 | 0 | 0 | 0 | 0 | 0 | 0 | 0 | 0 | 0 | 0 | 0 | 0 | 0 | 0 | 0 | 0 | 0 | 0
21 | O=C(O)CCc1ccc(NCc2cccc(Oc3ccccc3)c2)cc1 (10 µM) | 0 | 0 | 0 | 0 | 0 | 0 | 0 | 0 | 0 | 0 | 0 | 0 | 0 | 0 | 0 | 0 | 0 | 0 | 0 | 0
22 | CSc1ccc(CN2CCCC(Nc3ccc4[nH]ncc4c3)C2)cc1 (stereo not given) [Rho-Kinase-IN-1] (10 µM) | 0 | 0 | 0 | 0 | 0 | 0 | 0 | 0 | 0 | 0 | 0 | 0 | 0 | 0 | 0 | 0 | 0 | 0 | 0 | 0
23 | O=C1NC(=O)/C(=C/c2ccc(-c3ccc(F)cc3O)o2)S1 (10 µM) | 0 | 0 | 0 | 0 | 0 | 0 | 0 | 0 | 0 | 0 | 0 | 0 | 0 | 0 | 0 | 0 | 0 | 0 | 0 | 0
24 | O=Nc1c(-c2c(O)[nH]c3ccccc23)[nH]c2ccccc12 [Indirubin-3'-monoxime] (2.5 µM) | 0 | 0 | 0 | 0 | 0 | 0 | 0 | 0 | 0 | 3 | 2 | 0 | 0 | 0 | 0 | 0 | 0 | 0 | 0 | 0

An excerpt from above in order of count of non-hydrogen atoms, ascending.
Row | SMILES | number of time points (LMTK2) | number of time points (LYN) | number of time points (MAP2K1) | number of time points (MAP2K2) | number of time points (MAP4K2) | number of time points (MAPK1) | number of time points (MAPK4) | number of time points (MAPKAPK2) | number of time points (MKNK1) | number of time points (NTRK2) | number of time points (NTRK3) | number of time points (PAK4) | number of time points (PBK) | number of time points (PDGFRB) | number of time points (PDK1) | number of time points (PDPK1) | number of time points (PIK4CA) | number of time points (PIK4CB) | number of time points (PLK1) | number of time points (PRKAA1)
16 | N#C/C(=C(/N)Sc1ccc(N)cc1)c1ccccc1C(F)(F)F (10 µM) | 0 | 0 | 0 | 0 | 0 | 0 | 0 | 0 | 0 | 0 | 0 | 0 | 0 | 0 | 0 | 0 | 0 | 0 | 0 | 0
3 | Cn1cc(-c2ccc(F)c(C(F)(F)F)c2)nc1C1CCN(c2ncnc3[nH]ncc23)CC1 (10 µM) | 0 | 0 | 0 | 0 | 0 | 0 | 0 | 0 | 0 | 0 | 0 | 0 | 0 | 0 | 0 | 0 | 0 | 0 | 0 | 0
20 | O=C(O)c1ccc(N2N=C(Cc3ccccc3)C(=Cc3ccc(-c4ccccc4F)o3)C2=O)cc1 (10 µM) | 0 | 0 | 0 | 0 | 0 | 0 | 0 | 0 | 0 | 0 | 0 | 0 | 0 | 0 | 0 | 0 | 0 | 0 | 0 | 0
